Test results as given in doi:10.1101/2024.04.30.591959.
These are yes or no findings as the source states them, for the method shown.

Target: human propionyl-CoA carboxylase α subunit (human (endogenous in Expi 293F)) (UniProt P05165)
Assay: cryo-EM structure

B1: human propionyl-CoA carboxylase α subunit (protein, UniProt P05165 53-728)
chain: SVGYDPNEKTFDKILVANRGEIACRVIRTCKKMGIKTVAIHSDVDASSVHVKMADEAVCVGPAPTSKSYLNMDAIMEAIKKTRAQAVHPGYGFLSENKEFARCLAAEDVVFIGPDTHAIQAMGDKIESKLLAKKAEVNTIPGFDGVVKDAEEAVRIAREIGYPVMIKASAGGGGKGMRIAWDDEETRDGFRLSSQEAASSFGDDRLLIEKFIDNPRHIEIQVLGDKHGNALWLNERECSIQRRNQKVVEEAPSIFLDAETRRAMGEQAVALARAVKYSSAGTVEFLVDSKKNFYFLEMNTRLQVEHPVTECITGLDLVQEMIRVAKGYPLRHKQADIRINGWAVECRVYAEDPYKSFGLPSIGRLSQYQEPLHLPGVRVDSGIQPGSDISIYYDPMISKLITYGSDRTEALKRMADALDNYVIRGVTHNIALLREVIINSRFVKGDISTKFLSDVYPDGFKGHMLTKSEKNQLLAIASSLFVAFQLRAQHFQENSRMPVIKPDIANWELSVKLHDKVHTVVASNNGSVFSVEVDGSKLNVTSTWNLASPLLSVSVDGTQRTVQCLSREAGGNMSIQFLGTVYKVNILTRLAAELNKFMLEKVTEDTSSVLRSPMPGVVVAVSVKPGDAVAEGQEICVIEAMKMQNSMTAGKTGTVKSVHCQAGDTVGEGDLLVELE
modifications: biotin covalently linked to K694 (AMKM motif of the BCCP domain)
Question: B1 was tested. Which binding did it give?
Answer: Its binding is “no binding”.
